# Data taken from article PMC8411571.
# No constants are given. Whether binding was seen depends on the method and setting. In cells and extracts the contact can be indirect. Some binding calls cover weakened binding; strength is not graded here. Tags and fused reporters may be left off the sequences shown.
# T1: GST-Usp (Drosophila) (UniProt P20153)
# T1 sequence: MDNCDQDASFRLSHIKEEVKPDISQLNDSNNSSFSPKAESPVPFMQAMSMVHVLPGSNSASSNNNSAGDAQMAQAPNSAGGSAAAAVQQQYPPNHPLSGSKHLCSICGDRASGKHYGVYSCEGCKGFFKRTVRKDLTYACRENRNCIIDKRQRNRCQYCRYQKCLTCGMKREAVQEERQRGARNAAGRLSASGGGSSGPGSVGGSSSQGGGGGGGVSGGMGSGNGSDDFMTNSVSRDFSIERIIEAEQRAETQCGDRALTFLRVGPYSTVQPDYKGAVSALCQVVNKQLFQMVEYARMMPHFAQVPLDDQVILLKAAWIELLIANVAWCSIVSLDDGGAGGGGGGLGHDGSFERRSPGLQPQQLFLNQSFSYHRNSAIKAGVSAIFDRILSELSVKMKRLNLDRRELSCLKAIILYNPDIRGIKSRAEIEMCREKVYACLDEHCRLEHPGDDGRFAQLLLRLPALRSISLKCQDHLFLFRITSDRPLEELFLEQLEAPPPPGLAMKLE
# B1: His-Jun (protein, UniProt P18289 1-289)
# chain: MKTPVSAAANLSIQNAGSSGATAIQIIPKTEPVGEEGPMSLDFQSPNLNTSTPNPNKRPGSLDLNSKSAKNKRIFAPLVINSPDLSSKTVNTPDLEKILLSNNLMQTPQPGKVFPTKAGPVTVEQLDFGRGFEEALHNLHTNSQAFPSANSAANSAANNTTAAAMTAVNNGISGGTFTYTNMTEGFSVIKDEPVNQASSPTVNPIDMEAQEKIKLERKRQRNRVAASKCRKRKLERISKLEDRVKVLKGENVDLASIVKNLKDHVAQLKQQVMEHIAAGCTVPPNSTDQ
# Molecular target: T1, GST-Usp (Drosophila)
# Test: pull-down; GST-tagged bait and His-tagged prey, each from the bacterial soluble protein fraction, mixed in Buffer A (20 mM Tris, 1 mM MgCl2, 150 mM NaCl, 0.1% NP-40, 10% glycerol, pH 8.0) 1.5 h at 4°C, then Glutathione Sepharose 4B 1.5 h at 4°C; prey detected by anti-EcR or anti-Jun immunoblot; with or without added 20E
binder,measurement,value
B1,binding,binds
